Laboratory results reported in patent US20190055279A1, “NOVEL POLYPEPTIDES WITH IMPROVED PROTEOLYTIC STABILITY, AND METHODS OF PREPARING AND USING SAME” (TUFTS UNIVERSITY, priority 2015, published 2019).
For some of these results: Not every detail of the peptide structures is certain; ends, links or a residue may be inferred. For some of these results: For at least one compound, name, drawing or mass did not settle the structure. Where a SMILES comes first, the peptide text is derived from it. Side-chain parts run from the residue outwards. [ ]: non-standard residue; d: D form. The star is where a group is joined. N(CH2CF3)His = O=C(O)[C@H](Cc1c[nH]cn1)NCC(F)(F)F; Palmitoyl = CCCCCCCCCCCCCCCC(=O)*; βAla = NCCC(=O)O

Protein sequences, listed by entry. Tags and fused reporters are not part of them. Residues count along the entry.
UniProt P43220, 24-463, species assumed: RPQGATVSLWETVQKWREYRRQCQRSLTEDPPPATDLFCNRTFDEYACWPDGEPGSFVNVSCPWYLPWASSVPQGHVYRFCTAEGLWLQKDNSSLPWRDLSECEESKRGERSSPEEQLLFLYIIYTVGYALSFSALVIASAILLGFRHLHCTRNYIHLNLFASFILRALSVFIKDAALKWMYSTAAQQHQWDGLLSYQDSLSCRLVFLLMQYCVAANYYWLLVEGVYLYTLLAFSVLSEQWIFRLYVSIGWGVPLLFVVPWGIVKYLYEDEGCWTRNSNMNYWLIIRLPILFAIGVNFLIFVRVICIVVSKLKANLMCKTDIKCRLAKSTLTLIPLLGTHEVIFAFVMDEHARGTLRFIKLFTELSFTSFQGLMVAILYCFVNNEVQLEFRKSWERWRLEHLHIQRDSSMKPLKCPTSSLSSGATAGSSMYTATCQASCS

Legend:
human GLP-2R = molecular target: T1, human GLP-2R (Homo sapiens, UniProt O95838); assay: GLP-2R agonist assay: cAMP-responsive luciferase reporter in transfected HEK293 cells; assay type: cell-based; settings: mean±SEM, n=4
T1 construct: expressed in transfected cells; host or cells: HEK293
T1 sequence (O95838 1-553): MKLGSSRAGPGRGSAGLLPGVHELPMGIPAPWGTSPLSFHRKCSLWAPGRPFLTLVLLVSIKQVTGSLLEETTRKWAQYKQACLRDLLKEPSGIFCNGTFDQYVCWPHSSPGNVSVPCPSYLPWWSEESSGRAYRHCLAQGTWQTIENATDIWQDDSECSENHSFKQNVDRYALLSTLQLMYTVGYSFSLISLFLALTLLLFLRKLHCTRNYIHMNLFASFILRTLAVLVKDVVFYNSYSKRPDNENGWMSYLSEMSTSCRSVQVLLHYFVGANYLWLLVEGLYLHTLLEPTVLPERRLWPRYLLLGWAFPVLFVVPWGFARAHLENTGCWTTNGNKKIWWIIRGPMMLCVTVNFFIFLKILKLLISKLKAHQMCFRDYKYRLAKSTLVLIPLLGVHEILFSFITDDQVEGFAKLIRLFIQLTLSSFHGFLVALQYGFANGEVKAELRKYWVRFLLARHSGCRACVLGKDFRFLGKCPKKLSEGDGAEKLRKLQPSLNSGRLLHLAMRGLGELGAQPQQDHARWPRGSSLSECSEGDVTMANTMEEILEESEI

wild type mice = settings: GLP-2 twice daily over ten days; GATTEX daily; cited from earlier work
GLP-1R = molecular target: T2, GLP-1R (Homo sapiens, UniProt P43220); assay: GLP-1R agonist assay: CRE6x-LUC luciferase reporter in transiently transfected HEK293 cells; assay type: cell-based
T2 construct: expressed in transfected cells; host or cells: HEK293
Protocol: Briefly, HEK293 cells were plated at a density of 2−3×10^3 cells per well onto clear-bottom, white, 96-well plates and grown for 2 days to ˜80% confluency. Cells were then transiently transfected by using Lipofectamine reagent (Invitrogen) with cDNA encoding (1) a GPCR (or empty expression vector); (ii) a cAMP-responsive element-luciferase reporter gene (CRE6X-luc), and (iv) β-galactosidase as a control. Cells were incubated with or without the selected peptide agonist in serum-free medium for 6 h. Luciferase activity was quantified by using Steadylite reagent (Perkin-Elmer). A β-galactosidase assay then was performed after adding the enzyme substrate 2-nitrophenyl β-d-galactopyranoside.
Cellular assays for receptor binding and intracellular signaling were carried out with the compounds of the invention. […] The cells were then lysed, SteadyLite reagent (PerkinElmer) is added, and luciferase activity is measured in a TopCount NXT HTS plate luminometer. After further incubation with a chromogenic substrate (2-nitrophenyl β-D-galactopyranoside), optical density at 420 nm is determined by spectrophotometry, as a control to correct for interwell transfection variability. Sigmoidal concentration-response curves of GLP-1R ligand activity is calculated to determine potency. […]

Row | Compound | agonist potency/activity compared with the unmodified peptide (in words) (GLP-1R) | also measured
1 | CCCCCCCCCCCCCCCC(=O)NCCC(=O)NCCCC[C@H](NC(=O)[C@H](CC(N)=O)NC(=O)[C@H](CC(=O)O)NC(=O)[C@H](CC(C)C)NC(=O)[C@@H](NC(=O)[C@@H](NC(=O)[C@H](CC(N)=O)NC(=O)[C@H](CCSC)NC(=O)[C@H](CCC(=O)O)NC(=O)[C@H](CC(=O)O)NC(=O)[C@H](CO)NC(=O)[C@H](Cc1ccccc1)NC(=O)[C@H](CO)NC(=O)CNC(=O)[C@H](CC(=O)O)NC(=O)[C@H](C)NC(=O)[C@H](Cc1c[nH]cn1)NCC(F)(F)F)[C@@H](C)O)[C@@H](C)CC)C(=O)N[C@@H](C)C(=O)N[C@@H](C)C(=O)N[C@@H](CCCNC(=N)N)C(=O)N[C@@H](CC(=O)O)C(=O)N[C@@H](Cc1ccccc1)C(=O)N[C@H](C(=O)N[C@@H](CC(N)=O)C(=O)N[C@@H](Cc1c[nH]c2ccccc12)C(=O)N[C@@H](CC(C)C)C(=O)N[C@H](C(=O)N[C@@H](CCC(N)=O)C(=O)N[C@H](C(=O)N[C@@H](CCCCN)C(=O)N[C@H](C(=O)N[C@H](C(=O)N[C@@H](CC(=O)O)C(=O)O)[C@@H](C)O)[C@@H](C)CC)[C@@H](C)O)[C@@H](C)CC)[C@@H](C)CC [GLP2-L17K(l1)-4] (H-[N(CH2CF3)His]ADGSFSDEMNTILDNK([βAla-Palmitoyl])AARDFINWLIQTKITD-OH; N-terminus and C-terminus assumed) | – | EC50 (human GLP-2R): 0.044 ± 0.013 nM
2 | CC[C@H](C)[C@H](NC(=O)[C@H](Cc1ccccc1)NC(=O)[C@H](CC(=O)O)NC(=O)[C@H](CCCNC(=N)N)NC(=O)[C@H](C)NC(=O)[C@H](C)NC(=O)[C@H](CC(C)C)NC(=O)[C@H](CC(N)=O)NC(=O)[C@H](CC(=O)O)NC(=O)[C@H](CC(C)C)NC(=O)[C@@H](NC(=O)[C@@H](NC(=O)[C@H](CC(N)=O)NC(=O)[C@H](CCSC)NC(=O)[C@H](CCC(=O)O)NC(=O)[C@H](CC(=O)O)NC(=O)[C@H](CO)NC(=O)[C@H](Cc1ccccc1)NC(=O)[C@H](CO)NC(=O)CNC(=O)[C@H](CC(=O)O)NC(=O)[C@H](C)NC(=O)[C@@H](N)Cc1c[nH]cn1)[C@@H](C)O)[C@@H](C)CC)C(=O)N[C@@H](CC(N)=O)C(=O)N[C@@H](Cc1c[nH]c2ccccc12)C(=O)N[C@@H](CC(C)C)C(=O)N[C@H](C(=O)N[C@@H](CCC(N)=O)C(=O)N[C@H](C(=O)N[C@@H](CCCCN)C(=O)N[C@H](C(=O)N[C@H](C(=O)N[C@@H](CC(=O)O)C(=O)O)[C@@H](C)O)[C@@H](C)CC)[C@@H](C)O)[C@@H](C)CC [GLP-2, glucagon-like peptide-2, reference compound] | – | bowel weight (wild type mice): significant increase in small bowel weight
3 | CC[C@H](C)[C@H](NC(=O)[C@H](Cc1ccccc1)NC(=O)[C@H](CCC(=O)O)NC(=O)[C@H](CCCCN)NC(=O)[C@H](C)NC(=O)[C@H](C)NC(=O)[C@H](CCC(N)=O)NC(=O)CNC(=O)[C@H](CCC(=O)O)NC(=O)[C@H](CC(C)C)NC(=O)[C@H](Cc1ccc(O)cc1)NC(=O)[C@H](CO)NC(=O)[C@H](CO)NC(=O)[C@@H](NC(=O)[C@H](CC(=O)O)NC(=O)[C@H](CO)NC(=O)[C@@H](NC(=O)[C@H](Cc1ccccc1)NC(=O)[C@@H](NC(=O)CNC(=O)[C@H](CCC(=O)O)NC(=O)[C@H](C)NC(=O)[C@H](Cc1c[nH]cn1)NCC(C)C)[C@@H](C)O)[C@@H](C)O)C(C)C)C(=O)N[C@@H](C)C(=O)N[C@@H](Cc1c[nH]c2ccccc12)C(=O)N[C@@H](CC(C)C)C(=O)N[C@H](C(=O)N[C@@H](CCCCN)C(=O)NCC(=O)N[C@@H](CCCNC(=N)N)C(N)=O)C(C)C [G-6, isobutyl GLP-1] | barely detectable, and non-significant potency changes | –
4 | CC[C@H](C)[C@H](NC(=O)[C@H](Cc1ccccc1)NC(=O)[C@H](CCC(=O)O)NC(=O)[C@H](CCCCN)NC(=O)[C@H](C)NC(=O)[C@H](C)NC(=O)[C@H](CCC(N)=O)NC(=O)CNC(=O)[C@H](CCC(=O)O)NC(=O)[C@H](CC(C)C)NC(=O)[C@H](Cc1ccc(O)cc1)NC(=O)[C@H](CO)NC(=O)[C@H](CO)NC(=O)[C@@H](NC(=O)[C@H](CC(=O)O)NC(=O)[C@H](CO)NC(=O)[C@@H](NC(=O)[C@H](Cc1ccccc1)NC(=O)[C@@H](NC(=O)CNC(=O)[C@H](CCC(=O)O)NC(=O)[C@H](C)NC(=O)[C@H](Cc1c[nH]cn1)NCc1ccccc1)[C@@H](C)O)[C@@H](C)O)C(C)C)C(=O)N[C@@H](C)C(=O)N[C@@H](Cc1c[nH]c2ccccc12)C(=O)N[C@@H](CC(C)C)C(=O)N[C@H](C(=O)N[C@@H](CCCCN)C(=O)NCC(=O)N[C@@H](CCCNC(=N)N)C(N)=O)C(C)C [benzyl] | barely detectable, and non-significant potency changes | –
